PubChem BioAssay AID1259254, NCATS – 2017

Purpose: 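Gene knock-downs that lead to re-replication, shown by excess G2 DNA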 (primary screen)
Cells: human HCT116 colorectal cancer cells
Knock-down reagent: single siRNA against human genes
Time to read-out: 3 days
Measured: 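Imaged Hoechst DNA stain sorts each cell into a cycle phase by DNA amount; per plate, G2 fraction set to 0% for non-targeting and 100% for GMNN siRNA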
Direction: G2 robust z-score and G2 cells, % of GMNN control: higher = more G2 cells, more excess DNA replication; raw share of cells in G2: higher = larger share of cells with G2 DNA content
Rule for the call: 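Active siRNAs have a G2 robust z of 5 or more median absolute deviations over the median, which in these data means about 38% or higher of GMNN control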
Here is an unselected part of about 59,000 deposited reagents. About 1,550 of them (2.6%) count as active. 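G2 share is only a proxy for re-replication; each gene was hit by three separate siRNAs, and active genes were retested.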 The raw values are shown without normalisation. Reagents against one gene are numbered here. Not given: the amount of reagent.

target	siRNA no.	G2 robust z-score	G2 cells, % of GMNN control	raw share of cells in G2 (%)	Call
COMMD10 (GeneID 51397)	1	-0.949	-3.71	2.27	inactive
COMMD10 (GeneID 51397)	2	0.911	9.38	8.22	inactive
COMMD10 (GeneID 51397)	3	-0.892	-3.31	2.1	inactive
ZNF157 (GeneID 7712)	1	-0.0548	2.58	4.39	inactive
ZNF157 (GeneID 7712)	2	1.17	11.2	11	inactive
ZNF157 (GeneID 7712)	3	0.237	4.63	5.28	inactive
CBL (GeneID 867)	1	-0.857	-3.07	3.68	inactive
CBL (GeneID 867)	2	5.04	38.4	18.7	active
CBL (GeneID 867)	3	-0.693	-1.91	3.28	inactive
FLYWCH1 (GeneID 84256)	1	-1.01	-4.1	2.74	inactive
FLYWCH1 (GeneID 84256)	2	-0.85	-3.01	2.56	inactive
FLYWCH1 (GeneID 84256)	3	-0.355	0.467	2.55	inactive
PFDN4 (GeneID 5203)	1	0.013	3.06	6.27	inactive
PFDN4 (GeneID 5203)	2	2.7	22	12.9	inactive
PFDN4 (GeneID 5203)	3	-0.0183	2.84	4.38	inactive
LY6G5B (GeneID 58496)	1	-0.608	-1.31	5.18	inactive
LY6G5B (GeneID 58496)	2	1.54	13.8	10.2	inactive
LY6G5B (GeneID 58496)	3	2.34	19.4	9.91	inactive
PTPN14 (GeneID 5784)	1	1.33	12.3	8.81	inactive
PTPN14 (GeneID 5784)	2	-0.309	0.795	4.54	inactive
PTPN14 (GeneID 5784)	3	0.781	8.47	6.04	inactive
SYNPR (GeneID 132204)	1	1.57	14	7.91	inactive
SYNPR (GeneID 132204)	2	5.17	39.4	16.8	active
SYNPR (GeneID 132204)	3	5.34	40.5	17.7	active
PKN1 (GeneID 5585)	1	-1.17	-5.29	3.86	inactive
PKN1 (GeneID 5585)	2	-0.859	-3.08	4.37	inactive
PKN1 (GeneID 5585)	3	-0.152	1.9	4.69	inactive
RPP25L (GeneID 138716)	1	0.562	6.92	6.78	inactive
RPP25L (GeneID 138716)	2	2.65	21.6	9.95	inactive
RPP25L (GeneID 138716)	3	-0.0393	2.69	3.55	inactive
KRTAP5-1 (GeneID 387264)	1	-0.728	-2.15	4.12	inactive
KRTAP5-1 (GeneID 387264)	2	-0.877	-3.2	3.12	inactive
KRTAP5-1 (GeneID 387264)	3	-1.26	-5.91	3.35	inactive
PTPN20 (GeneID 26095)	1	-0.0474	2.63	5.65	inactive
PTPN20 (GeneID 26095)	2	-0.146	1.94	4.89	inactive
PTPN20 (GeneID 26095)	3	0.0962	3.64	4.59	inactive
PTPN20 (GeneID 26095)	4	-0.928	-3.56	3.64	inactive
PTPN20 (GeneID 26095)	5	-1.53	-7.79	1.96	inactive
PTPN20 (GeneID 26095)	6	-0.138	2	4.1	inactive
PLIN2 (GeneID 123)	1	3.14	25	17.1	inactive
PLIN2 (GeneID 123)	2	-0.733	-2.19	3.29	inactive
PLIN2 (GeneID 123)	3	-0.34	0.572	3.75	inactive
SLC35G5 (GeneID 83650)	1	8.05	59.6	23.9	active
SLC35G5 (GeneID 83650)	2	0.693	7.84	5.78	inactive
SLC35G5 (GeneID 83650)	3	-0.877	-3.2	1.43	inactive
TRIM44 (GeneID 54765)	1	-0.598	-1.24	3.16	inactive
TRIM44 (GeneID 54765)	2	-0.232	1.33	4.83	inactive
TRIM44 (GeneID 54765)	3	5.72	43.2	17.5	active
GC (GeneID 2638)	1	4.81	36.8	16.8	inactive
GC (GeneID 2638)	2	9.87	72.4	31.5	active
GC (GeneID 2638)	3	0.126	3.85	6.73	inactive
SCGB2A1 (GeneID 4246)	1	-1.26	-5.88	3.43	inactive
SCGB2A1 (GeneID 4246)	2	-0.373	0.346	5.72	inactive
SCGB2A1 (GeneID 4246)	3	-0.833	-2.89	3	inactive
IQSEC1 (GeneID 9922)	1	-0.556	-0.942	4.9	inactive
IQSEC1 (GeneID 9922)	2	1.36	12.5	9.16	inactive
IQSEC1 (GeneID 9922)	3	4.61	35.4	16.3	inactive
LRRC37B (GeneID 114659)	1	0.337	5.34	6.23	inactive
LRRC37B (GeneID 114659)	2	-0.573	-1.07	3.01	inactive
LRRC37B (GeneID 114659)	3	1.33	12.3	5.42	inactive
PADI6 (GeneID 353238)	1	-0.458	-0.258	3.9	inactive
PADI6 (GeneID 353238)	2	1.27	11.9	8.46	inactive
PADI6 (GeneID 353238)	3	3.38	26.7	15	inactive
ZNF767P (GeneID 79970)	1	-0.0171	2.85	5.63	inactive
ZNF767P (GeneID 79970)	2	1.83	15.9	11.2	inactive
ZNF767P (GeneID 79970)	3	-0.681	-1.83	1.88	inactive
CASC15 (GeneID 401237)	1	0.337	5.34	5.97	inactive
CASC15 (GeneID 401237)	2	1.06	10.4	6.68	inactive
CASC15 (GeneID 401237)	3	1.24	11.7	7.67	inactive

Called active (from the list above):
target	siRNA no.	G2 robust z-score	G2 cells, % of GMNN control	raw share of cells in G2 (%)	Call
CBL (GeneID 867)	2	5.04	38.4	18.7	active
SYNPR (GeneID 132204)	2	5.17	39.4	16.8	active
SYNPR (GeneID 132204)	3	5.34	40.5	17.7	active
SLC35G5 (GeneID 83650)	1	8.05	59.6	23.9	active
TRIM44 (GeneID 54765)	3	5.72	43.2	17.5	active
GC (GeneID 2638)	2	9.87	72.4	31.5	active
